The assay deals with TEX12 F109E (human) (UniProt Q9BXU0). Put plainly: SEC-SAXS; Superdex 200 Increase 10/300 GL, 20 mM Tris pH 8.0, 150 mM KCl; samples at >5 mg/ml; beamline B21, Diamond Light Source; both purified.

These are yes or no findings as the source states them, for the method shown. Some binding calls cover weakened binding; strength is not graded here.

B1: TEX12 F109E (domain or fragment, UniProt Q9BXU0 49-123)
chain: KDEALEKDLNDVSKEINLMLSTYAKLLSERAAVDASYIDEIDELFKEANAIENFLIQKREELRQRFTVIANTLHR
Consider B1, for which the binding entry was “binds”.

For the origin of these results see PMC9452514, “Coiled-coil structure of meiosis protein TEX12 and conformational regulation by its C-terminal tip” (Communications Biology, 2022).
